PubChem BioAssay AID504764, Drosophila RNAi Screening Center | 2011
The screen tested about 22,000 reagents; shown is a random part of those with a known target gene and a result. Over the whole deposit, 403 (1.9%) were called active. 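Unnormalised raw counts per well; ratio z-scores behind the hit calls and whether each hit raises or lowers signal are not deposited.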 Reagents against one gene are numbered here. A plus sign joins genes that one reagent is predicted to hit. Not stated in the record: the amount of reagent.

Test: 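Genome-wide screen for regulators of Notch-driven gene expression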 (primary screen)
Cell system: Drosophila Kc167 cells
Reagents: long dsRNA against Drosophila genes
Timing: about 5 days (4 days dsRNA, then 24 h after transfection)
Treatment: transfection of constitutively active membrane-tethered Notch lacking the extracellular domain, read 24 h later
Detection: 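Light from a Notch-responsive E(spl)m3 luciferase reporter under active Notch, with control-promoter and no-Notch reporter wells to normalise; raw counts from paired wells a and b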
Direction: induced reporter light, run 1, well a and induced reporter light, run 1, well b: higher = more light from the Notch target reporter with active Notch; control promoter light, run 1, well a and control promoter light, run 1, well b: higher = more light from the viral control promoter (cell number, transfection, viability); uninduced reporter light, run 1, well a: higher = more light from the Notch target reporter without active Notch
Call rule: 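Hit if the duplicate-averaged log2 ratio of induced to control-promoter light gives a plate-wise z beyond ±2, or induced to uninduced beyond ±1.8; weak-control or discordant-duplicate wells dropped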
Meaning of the calls: active = modifier hit (raised or lowered Notch signal); inactive = not a hit

no.	gene knocked down	reagent no.	induced reporter light, run 1, well a	induced reporter light, run 1, well b	control promoter light, run 1, well a	control promoter light, run 1, well b	uninduced reporter light, run 1, well a	Call
1	CG30109	1	1.18e5	1.09e5	1.61e5	1.43e5	8665	inactive
2	CG4558	1	2.63e5	2.91e5	3.22e5	3.17e5	16670	inactive
3	CG14893	1	3.51e5	4.37e5	2.64e5	3.25e5	22270	inactive
4	Vm26Aa	1	49705	41675	43620	34805	3610	inactive
5	CG14963	1	1.17e5	1.32e5	1.92e5	2.42e5	7780	inactive
6	Hex-A	1	93290	79665	1.80e5	1.34e5	6320	inactive
7	nompC	1	1.85e5	1.16e5	1.62e5	1.68e5	10980	inactive
8	sisA	1	84445	1.20e5	1.39e5	1.61e5	8092	inactive
9	Dad1	1	2.12e5	2.42e5	1.49e5	1.83e5	28465	inactive
10	to	1	1.58e5	1.52e5	2.27e5	2.31e5	14635	inactive
11	Rrp4	1	1.77e5	1.59e5	1.46e5	1.72e5	12060	inactive
12	Ip6k	1	1.55e5	1.96e5	1.57e5	1.41e5	15735	inactive
13	CG13884	1	1.38e5	1.22e5	1.87e5	2.50e5	8895	inactive
14	TORIP	1	84810	79520	48590	58300	6795	inactive
15	Scr	1	8545	9645	7042	5375	3395	inactive
16	Atf6	1	1.76e5	2.00e5	2.33e5	2.39e5	10210	active
17	Atf6	2	2.28e5	2.02e5	1.72e5	1.93e5	15050	inactive
18	CG17652	1	1.42e5	1.11e5	1.25e5	99960	9025	inactive
19	CG9747	1	1.61e5	2.09e5	2.47e5	2.34e5	11500	inactive
20	CG4984 + CG4975	1	1.39e5	84355	1.20e5	1.46e5	9645	inactive
21	CG4984 + CG4975	2	1.07e5	1.27e5	2.06e5	2.25e5	8155	inactive
22	SCaMC	1	89120	99655	47055	30600	8020	inactive
23	SCaMC	2	2.45e5	1.91e5	2.53e5	2.77e5	15710	inactive
24	msk	1	98535	1.16e5	83190	36700	10805	inactive
25	Chchd2	1	63050	65460	70570	57360	8715	inactive
26	CG13445	1	1.56e5	1.70e5	1.73e5	1.84e5	7530	inactive
27	PolE4	1	2.08e5	2.06e5	1.44e5	1.66e5	13520	inactive
28	CG12674	1	1.30e5	1.08e5	1.07e5	52055	8870	inactive
29	CG15043	1	74505	67570	93360	83035	10590	inactive
30	Nab2	1	15678	12025	14820	17920	955	active
31	Acbp3	1	2.39e5	2.47e5	2.95e5	2.36e5	7795	inactive
32	CG31206	1	92600	84670	1.02e5	1.08e5	11478	inactive
33	CG5096	1	1.58e5	2.18e5	1.02e5	1.35e5	21870	inactive
34	TfIIFalpha	1	23420	22150	29370	22945	1875	inactive
35	CG15337	1	1.48e5	1.37e5	3.11e5	3.52e5	12075	inactive
36	Tlk	1	1.38e5	1.46e5	3.27e5	2.84e5	12840	inactive
37	Tlk	2	14300	16075	23425	18310	5025	inactive
38	Tlk	3						inactive
39	Tlk	4						active
40	CG8260	1	34695	28685	27620	18055	3815	inactive
41	Hexo1	1	68485	2.34e5	2.11e5	2.24e5	10190	inactive
42	Rpt3R	1	50955	52510	61775	50920	3500	inactive
43	Rad1 + Sws1	1	1.61e5	1.16e5	1.17e5	84875	9300	inactive
44	CG30447	1	1.18e5	1.11e5	1.52e5	1.56e5	8085	inactive
45	CG13615	1	1.50e5	1.59e5	2.13e5	2.27e5	13500	inactive
46	CG6472	1	40615	41755	54110	43230	4205	inactive
47	Alp5	1	1.93e5	1.81e5	2.11e5	2.38e5	14500	inactive
48	egh	1	1.33e5	1.34e5	2.41e5	2.99e5	11645	inactive
49	CG3358	1	1.80e5	1.51e5	1.44e5	1.96e5	11862	inactive
50	Ance-5	1	2.51e5	2.52e5	2.27e5	2.13e5	17955	inactive

Part of the list above, set out differently.
{"gene knocked down": "CG4984 + CG4975", "reagent no.": 1, "induced reporter light, run 1, well a": 1.39e5, "induced reporter light, run 1, well b": 84355, "control promoter light, run 1, well a": 1.20e5, "control promoter light, run 1, well b": 1.46e5, "uninduced reporter light, run 1, well a": 9645, "Call": "inactive"}
{"gene knocked down": "CG4984 + CG4975", "reagent no.": 2, "induced reporter light, run 1, well a": 1.07e5, "induced reporter light, run 1, well b": 1.27e5, "control promoter light, run 1, well a": 2.06e5, "control promoter light, run 1, well b": 2.25e5, "uninduced reporter light, run 1, well a": 8155, "Call": "inactive"}
{"gene knocked down": "SCaMC", "reagent no.": 1, "induced reporter light, run 1, well a": 89120, "induced reporter light, run 1, well b": 99655, "control promoter light, run 1, well a": 47055, "control promoter light, run 1, well b": 30600, "uninduced reporter light, run 1, well a": 8020, "Call": "inactive"}
{"gene knocked down": "SCaMC", "reagent no.": 2, "induced reporter light, run 1, well a": 2.45e5, "induced reporter light, run 1, well b": 1.91e5, "control promoter light, run 1, well a": 2.53e5, "control promoter light, run 1, well b": 2.77e5, "uninduced reporter light, run 1, well a": 15710, "Call": "inactive"}
